# Measured values from PubChem BioAssay AID2685 (National Center for Advancing Translational Sciences (NCATS), 2010).
# The other results are listed elsewhere or left out. These are further read-outs of the screen, such as a control signal, another cell line or another target. No call is given for them. Most of these compounds were active or inconclusive in the main read-out, so they are no random draw. The note in brackets gives the kind of curve behind each potency; many fits are weak.
# Assay: qHTS Assay for Lipid Storage Modulators in Drosophila S3 Cells;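 on cell number change: cells counted by Cell Tracker Red CMTPX staining in the red channel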
# Conditions: BODIPY lipid droplet fluorescence, 18-24 h; for cell number change: measured here: cell count max response, cells fed with added oleic acid
# Summary of the method: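 Drosophila S3 cells got compounds at several concentrations plus oleic acid (400 uM solution). Laser-scanning cytometry with 488 nm excitation read lipid droplets at 500-530 nm and cells at 575-640 nm. Percent activity was relative to 20 uM Triacsin C.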
# [1] = measured here: lipid fluorescence (Fed channel) AC50, cells fed with added oleic acid
# [2] = measured here: cell number channel AC50, cells fed with added oleic acid
structure (smiles),measurement,setting,value
CC(C)C(=O)NC(=S)Nc1ccc(S(=O)(=O)Nc2nccs2)cc1,cell number change,,11.2%
same,AC50,[1],"0.0259 µM [rising, full curve, poor fit]"
CCCc1cc(=O)[nH]c(SCC(=O)N2CCC(C)CC2)n1,AC50,[1],"6.51 µM [falling, single point]"
CCOCCCNC(=O)Cc1ccc(OC)c(OC)c1,cell number change,,-23.1%
CSCCC(NC(=O)c1ccc(Cl)cc1)C(=O)OCC(=O)NCc1ccco1 (stereo unspecified),cell number change,,55.5%
same,AC50,[2],"11.6 µM [rising, partial curve, poor fit]"
Cc1nc(Nc2ccc(S(N)(=O)=O)cc2)oc1C,cell number change,,-8.06%
COc1cc(CN2CCC(n3nccc3NC(=O)c3ccc4c(c3)OCO4)CC2)ccc1O,cell number change,,-15.3%
same,AC50,[2],"1.84 µM [rising, partial curve]"
Cc1cccc(C)c1NC(=O)CN(C)C(=O)Cn1c(=O)cnc2ccccc21,cell number change,,25.4%
same,AC50,[2],"0.708 µM [rising, full curve, poor fit]"
same,AC50,[1],"0.562 µM [rising, full curve, poor fit]"
O=C(NCC1COc2ccccc2O1)c1ccc(F)c(S(=O)(=O)N2CCOCC2)c1 (stereo unspecified),cell number change,,0.402%
O=C(OCC(=O)N1CCCC1)c1cc(F)c(F)cc1Cl,cell number change,,20.3%
same,AC50,[1],"0.651 µM [rising, full curve, poor fit]"
COc1cccc(C(=O)NCCC2=CCCCC2)c1,AC50,[1],"6.51 µM [falling, single point]"
Cc1ccc2[nH]c(=S)cc(C)c2c1,cell number change,,13.7%
same,AC50,[1],"0.58 µM [rising, full curve, poor fit]"
CC(=O)C1=C(c2ccccc2)NC(=S)NC1c1cc(Cl)c(OC(C)C)c(Cl)c1 (stereo unspecified),cell number change,,-18.1%
Cc1nn(Cc2ccccc2Cl)c(C)c1NC(=O)Cn1nc([N+](=O)[O-])c(Cl)c1C,AC50,[2],"0.00461 µM [rising, full curve, poor fit]"
same,AC50,[1],"0.58 µM [rising, partial curve]"
O=C(Nc1ccc(F)cc1)c1cc(S(=O)(=O)Nc2ccc(F)cc2)cs1,cell number change,,-44.3%
COc1ccccc1C1CC(c2ccccc2)=NN1S(=O)(=O)c1ccccc1 (stereo unspecified),cell number change,,6.3%
same,AC50,[2],"2.06 µM [rising, partial curve]"
Cc1cc(-c2nnc(SCC(=O)NC3CCCC3)o2)no1,cell number change,,29.8%
same,AC50,[1],"10.3 µM [rising, partial curve]"
Cc1cc(C)n2c(SCC(=O)Nc3ncc(C(F)(F)F)cc3Cl)nnc2n1,cell number change,,-8.79%
same,AC50,[1],"7.31 µM [rising, single point]"
CCN(C(=O)CSc1nccn1C)c1cccc2ccccc12,cell number change,,21.6%
same,AC50,[1],"0.231 µM [rising, full curve, poor fit]"
COCCn1c(-c2ccc(OC(F)(F)C(F)C(F)(F)F)cc2)nc2c1c(=O)[nH]c(=O)n2CC(C)C (stereo unspecified),cell number change,,-41.4%
same,AC50,[2],"16.4 µM [falling, partial curve]"
same,AC50,[1],"14.6 µM [falling, partial curve]"
Cc1ccc(CSc2nnc(-c3ccco3)o2)cc1,cell number change,,35.3%
same,AC50,[2],"29.1 µM [rising, single point]"
CCOc1ccc(NC(=S)N2CCn3c(nc4ccccc43)C2)cc1,cell number change,,30.5%
O=C(Cc1ccccc1)NCCc1cn2ccsc2n1,cell number change,,15%
CC(C)OCCCNCC(O)c1ccccc1 (stereo unspecified),cell number change,,10.9%
same,AC50,[1],"18.4 µM [rising, partial curve, poor fit]"
CC(=O)Nc1ccc(S(=O)(=O)N2CCN=C2SCc2ccc([N+](=O)[O-])cc2)cc1,cell number change,,-46.1%
same,AC50,[2],"35.5 µM [falling, single point]"
same,AC50,[1],"35.5 µM [falling, single point]"
Cc1ccccc1-c1cc(-c2ccccc2O)n[nH]1,cell number change,,-36%
same,AC50,[2],"32.6 µM [falling, single point]"
Cc1cc(=O)oc(C)c1C(=O)NCCC1=CCCCC1,cell number change,,-91%
same,AC50,[2],"29.1 µM [falling, single point]"
same,AC50,[1],"29.1 µM [falling, single point]"
Cc1ccc(-n2ncc3c(N4CCN(c5ccccc5)CC4)ncnc32)c(C)c1,cell number change,,-7.6%
same,AC50,[2],"6.51 µM [falling, single point]"
same,AC50,[1],"2.31 µM [falling, partial curve, poor fit]"
COc1ccccc1CC(=O)O/N=C(\N)c1cccc([N+](=O)[O-])c1,cell number change,,28%
COc1cccc(C(=O)NOCc2ccccc2)c1OC,cell number change,,-1.3%
same,AC50,[1],"13 µM [rising, partial curve, poor fit]"
COc1ccc(CCNc2c([N+](=O)[O-])c(=O)oc3ccccc23)cc1OC,cell number change,,-22.2%
same,AC50,[1],"14.6 µM [falling, partial curve]"
COc1ccc(OC)c(C2=NNC(=NCc3ccc4c(c3)OCO4)SC2)c1,cell number change,,3.3%
same,AC50,[1],"11.6 µM [rising, partial curve, poor fit]"
CC(=O)Nc1ccc(OCC(O)Cn2c(CO)nc3ccccc32)cc1 (stereo unspecified),cell number change,,-33.1%
same,AC50,[2],"18.4 µM [falling, single point]"
O=C1NC[C@H](Cc2ccccc2)N(CC2CCCCC2)C1=O,cell number change,,-6.18%
same,AC50,[1],"0.00651 µM [falling, full curve, poor fit]"
COc1cc(C(=O)Nc2ccc3nc(N4CCN(C)CC4)cc(C)c3c2)cc(OC)c1OC,cell number change,,46.1%
same,AC50,[2],"4.11 µM [rising, full curve, poor fit]"
same,AC50,[1],"5.8 µM [rising, full curve]"
Cc1cc(=O)[nH]c(SCCOc2ccc(OC(C)C)cc2)n1,cell number change,,-42.9%
same,AC50,[2],"29.1 µM [falling, single point]"
CCOc1ccccc1NC(=O)C(=O)/C=C(\O)c1cc(OC)ccc1OC,cell number change,,42.2%
same,AC50,[2],"29.1 µM [rising, single point]"
Cc1ccc(-c2nc(CN(C)Cc3ccc4nccnc4c3)c(C)o2)s1,cell number change,,-1.95%
same,AC50,[1],"6.51 µM [falling, single point]"
CC(CNc1ccc([N+](=O)[O-])c2cccnc12)Nc1c([N+](=O)[O-])cc(C(F)(F)F)cc1[N+](=O)[O-] (stereo unspecified),cell number change,,-84.1%
same,AC50,[2],"20.6 µM [falling, single point]"
same,AC50,[1],"23.1 µM [falling, partial curve, poor fit]"
O=C(NC(=S)N1CCN(c2ccccn2)CC1)c1ccccc1,cell number change,,22.5%
same,AC50,[1],"14.6 µM [rising, partial curve]"
O=C(CN1C(=O)c2ccccc2C1=O)Nc1ccccc1C(=O)NC1CCCCC1,cell number change,,44.2%
same,AC50,[2],"29.1 µM [rising, single point]"
same,AC50,[1],"0.00411 µM [rising, full curve, poor fit]"
COc1ccc(NC(=O)COC(=O)/C=C/c2ccc(OC)c(S(=O)(=O)N3CCOCC3)c2)cc1,cell number change,,-15%
same,AC50,[1],"16.4 µM [rising, single point]"
CCCOc1ccc(C(=O)OCC(=O)c2c(N)n(C)c(=O)n(C)c2=O)cc1OC,cell number change,,1.17%
same,AC50,[2],"0.146 µM [falling, full curve, poor fit]"
CC(C(c1cccs1)c1c(N)n(C)c(=O)n(C)c1=O)[N+](=O)[O-] (stereo unspecified),cell number change,,35.1%
same,AC50,[2],"29.1 µM [rising, single point]"
COc1ccc(C(=O)Nc2ccc(C)cn2)cc1S(=O)(=O)N1CCCc2ccccc21,cell number change,,-30.1%
same,AC50,[2],"0.82 µM [falling, full curve, poor fit]"
O=C(c1ccccc1)c1c[nH]c(C(=O)C(Cl)(Cl)Cl)c1,cell number change,,-31.4%
COc1ccc(Br)c(C(=O)NC(C)(C)CO)c1,cell number change,,21.8%
same,AC50,[1],"0.0291 µM [rising, full curve, poor fit]"
O=C(Nc1cccc(C(=O)NC2CC2)c1)c1ccc(F)c(S(=O)(=O)N2CCOCC2)c1,cell number change,,-10.9%
CCOC(=O)c1[nH]c2ccc(OCC)cc2c1NC(=O)CN1CCN(c2ccccc2)CC1,cell number change,,8.69%
same,AC50,[1],"0.0326 µM [rising, full curve, poor fit]"
COc1cccc(Cl)c1NC(=O)N1CCN(c2cc(C)nc3ccccc23)CC1,cell number change,,30.4%
same,AC50,[2],"1.3 µM [rising, partial curve, poor fit]"
S=C(Nc1ccccc1Cl)N1CCCCCC1,cell number change,,-43.1%
same,AC50,[2],"32.6 µM [falling, single point]"
same,AC50,[1],"29.1 µM [falling, single point]"
Cn1c(=O)c(=O)n(C)c2cc(S(=O)(=O)N3CCOCC3)ccc21,cell number change,,45.4%
same,AC50,[2],"29.1 µM [rising, single point]"
same,AC50,[1],"29.1 µM [rising, single point]"
CCC1(c2ccccc2)NC(=O)N(CC(=O)N(C)Cc2c(F)cccc2Cl)C1=O (stereo unspecified),cell number change,,16.9%
O=C(Nc1cccc(Cl)c1N1CCCC1)c1ccc(Br)o1,cell number change,,-16%
same,AC50,[1],"0.13 µM [rising, full curve, poor fit]"
CC(=O)Nc1ccc(Nc2cc(N(C)C)c3nonc3c2[N+](=O)[O-])cc1,cell number change,,15.9%
same,AC50,[1],"0.13 µM [rising, full curve, poor fit]"
O=C(COc1coc(CN2CCc3ccccc3C2)cc1=O)Nc1ccc(F)cc1F,cell number change,,13.1%
same,AC50,[2],"0.00461 µM [falling, full curve, poor fit]"
CC(=O)Nc1ccc(NC(=O)COC(=O)c2ccco2)cc1,cell number change,,8.89%
same,AC50,[1],"0.082 µM [falling, full curve, poor fit]"
O=C(NCCCN1CCCC1=O)C1CCN(S(=O)(=O)c2ccccc2)CC1,cell number change,,-3.03%
same,AC50,[1],"0.206 µM [falling, full curve]"
O=C(COC(=O)C1COc2ccccc2O1)NC(=O)NC1CCCCC1 (stereo unspecified),cell number change,,-16.2%
same,AC50,[2],"6.51 µM [falling, single point]"
same,AC50,[1],"29.1 µM [falling, single point]"
COCCOC(=O)C1=C(C)NC(C)=C(C(=O)OCCOC)C1/C=C/c1ccccc1OC,cell number change,,17.5%
same,AC50,[1],"1.64 µM [rising, partial curve, poor fit]"

# 6 entries from above in another layout:
structure (smiles)	measurement	setting	value
Cc1cccc(C)c1NC(=O)CN(C)C(=O)Cn1c(=O)cnc2ccccc21	AC50	[2]	0.708 µM [rising, full curve, poor fit]
Cc1nn(Cc2ccccc2Cl)c(C)c1NC(=O)Cn1nc([N+](=O)[O-])c(Cl)c1C	AC50	[2]	0.00461 µM [rising, full curve, poor fit]
COc1ccc(OC)c(C2=NNC(=NCc3ccc4c(c3)OCO4)SC2)c1	AC50	[1]	11.6 µM [rising, partial curve, poor fit]
O=C(Nc1cccc(Cl)c1N1CCCC1)c1ccc(Br)o1	cell number change		-16%
O=C(COC(=O)C1COc2ccccc2O1)NC(=O)NC1CCCCC1 (stereo unspecified)	cell number change		-16.2%
COCCOC(=O)C1=C(C)NC(C)=C(C(=O)OCCOC)C1/C=C/c1ccccc1OC	cell number change		17.5%
